“Also recorded” adds a separate entry of the source. Where two headings read alike, the source gives them in different places. At least one compound was matched to its structure with a doubt left.
Experiments:
[1] = Body and adipose tissue weight of rosiglitazone-treated mice (trial 1, FIG. 2); type: in vivo
[2] = tested on: de novo fatty acid synthesis; details: PE

For `CN(CCOc1ccc(CC2SC(=O)NC2=O)cc1)c1ccccn1` (stereo not shown) [rosiglitazone], the total body weight ([1]; rosiglitazone 4 weeks vs controls (FIG. 2a)) was “gained weight relative to their controls; also recorded: significant increase”, the adipose tissue weight ([1]; rosiglitazone 4 weeks vs controls (FIG. 2b)) was “significant increase” and the “14:0” value ([2]; Heart, mean) was 0.1 percentage of total fatty acids within each lipid class. The “16:0” value ([2]; Heart, mean) was 10.1 percentage of total fatty acids within each lipid class, the “16:1n7” value ([2]; Heart, mean) was 0.6 percentage of total fatty acids within each lipid class and the “18:0” value ([2]; Heart, mean) was 21.7 percentage of total fatty acids within each lipid class. The “18:1n7” value ([2]; Heart, mean) was 2.9 percentage of total fatty acids within each lipid class, the “18:1n9” value ([2]; Heart, mean) was 6.8 percentage of total fatty acids within each lipid class and the Saturates ([2]; Heart, mean) was 32.2 percentage of total fatty acids within each lipid class. The Total ([2]; Heart, mean) was 100.0 percentage of total fatty acids within each lipid class, the “Total n9” value ([2]; Heart, mean) was 7.0 percentage of total fatty acids within each lipid class and the “14:0” value ([2]; Heart, mean of treated mice) was 15.5 nanomoles per gram. For the same compound, the “16:0” value ([2]; Heart, mean of treated mice) was 1969.3 nanomoles per gram, the “16:1n7” value ([2]; Heart, mean of treated mice) was 109.5 nanomoles per gram and the “18:0” value ([2]; Heart, mean of treated mice) was 4239.2 nanomoles per gram. For the same compound, the “18:1n7” value ([2]; Heart, mean of treated mice) was 580.9 nanomoles per gram, the “18:1n9” value ([2]; Heart, mean of treated mice) was 1327.0 nanomoles per gram and the Saturates ([2]; Heart, mean of treated mice) was 6267.3 nanomoles per gram. The “Total n9” value ([2]; Heart, mean of treated mice) was 1373.2 nanomoles per gram, the “Total nMole of” value ([2]; Heart, mean of treated mice) was 9726.6 nanomoles per gram and the “14:0” value ([2]; Liver, mean) was 0.1 percentage of total fatty acids within each lipid class. For the same compound, the “16:0” value ([2]; Liver, mean) was 23.3 percentage of total fatty acids within each lipid class, the “16:1n7” value ([2]; Liver, mean) was 1.3 percentage of total fatty acids within each lipid class and the “18:0” value ([2]; Liver, mean) was 15.2 percentage of total fatty acids within each lipid class. The “18:1n7” value ([2]; Liver, mean) was 3.9 percentage of total fatty acids within each lipid class, the “18:1n9” value ([2]; Liver, mean) was 7.5 percentage of total fatty acids within each lipid class and the Saturates ([2]; Liver, mean) was 38.9 percentage of total fatty acids within each lipid class. For the same compound, the Total ([2]; Liver, mean) was 100.0 percentage of total fatty acids within each lipid class, the “Total n9” value ([2]; Liver, mean) was 8.1 percentage of total fatty acids within each lipid class and the “14:0” value ([2]; Liver, mean of treated mice) was 12.5 nanomoles per gram. For the same compound, the “16:0” value ([2]; Liver, mean of treated mice) was 3461.1 nanomoles per gram, the “16:1n7” value ([2]; Liver, mean of treated mice) was 191.0 nanomoles per gram and the “18:0” value ([2]; Liver, mean of treated mice) was 2245.7 nanomoles per gram. The “18:1n7” value ([2]; Liver, mean of treated mice) was 574.2 nanomoles per gram, the “18:1n9” value ([2]; Liver, mean of treated mice) was 1119.7 nanomoles per gram and the Saturates ([2]; Liver, mean of treated mice) was 5762.3 nanomoles per gram. For the same compound, the “Total nMole of” value ([2]; Liver, mean of treated mice) was 7418.6 nanomoles per gram, the “14:0” value ([2]; Plasma, mean) was 1.3 percentage of total fatty acids within each lipid class and the “16:0” value ([2]; Plasma, mean) was 20.4 percentage of total fatty acids within each lipid class. The “16:1n7” value ([2]; Plasma, mean) was 1.7 percentage of total fatty acids within each lipid class, the “18:0” value ([2]; Plasma, mean) was 15.5 percentage of total fatty acids within each lipid class and the “18:1n7” value ([2]; Plasma, mean) was 2.7 percentage of total fatty acids within each lipid class. The “18:1n9” value ([2]; Plasma, mean) was 16.1 percentage of total fatty acids within each lipid class, the Saturates ([2]; Plasma, mean) was 40.9 percentage of total fatty acids within each lipid class and the Total ([2]; Plasma, mean) was 100.0 percentage of total fatty acids within each lipid class. The “Total n9” value ([2]; Plasma, mean) was 17.3 percentage of total fatty acids within each lipid class, the “14:0” value ([2]; Plasma, mean of treated mice) was 2.7 nanomoles per gram and the “16:0” value ([2]; Plasma, mean of treated mice) was 42.3 nanomoles per gram. For the same compound, the “16:1n7” value ([2]; Plasma, mean of treated mice) was 3.5 nanomoles per gram, the “18:0” value ([2]; Plasma, mean of treated mice) was 32.5 nanomoles per gram and the “18:1n7” value ([2]; Plasma, mean of treated mice) was 5.7 nanomoles per gram. The “18:1n9” value ([2]; Plasma, mean of treated mice) was 35.0 nanomoles per gram, the Saturates ([2]; Plasma, mean of treated mice) was 85.3 nanomoles per gram and the “Total n9” value ([2]; Plasma, mean of treated mice) was 37.5 nanomoles per gram. For the same compound, the “Total nMole of” value ([2]; Plasma, mean of treated mice) was 105.8 nanomoles per gram.
